Reference: patent US10723777B2 (CAREGEN CO., LTD., priority 2016, dated 2020)

Assays:
[1] = general procedure: peptide synthesis; chlorotrityl chloride resin (CTL resin, Nova biochem Cat No. 01-64-0021); conditions: whole synthesis; for crude yield: scale of the general procedure 700 mg resin
[2] = general procedure: peptide synthesis; CTL resin; conditions: whole synthesis

Substance | crude mass [1] | crude yield [1] | crude mass [2] | crude yield ([2]; scale of the general procedure 700 mg resin)
NH2-Ala-Cys(Ser)Thr-Leu-Pro-His-Pro-Trp-Phe-Cys(Ser)-COOH | 0.92 g | 85% | – | –
NH2-Leu-Lys-Thr-Arg-Asn-COOH | – | – | 0.85 g | 92%
NH2-Lys-Gly-Ala-Cys(Ser)-Thr-Gly-Trp-Met-Ala-COOH (KGACTGWMA; Peptide 2) | 0.78 g | 82% | – | –
NH2—Cys(Ser)-Asp-Leu-Arg-Arg-Leu-Glu-Met-Tyr-Cys(Ser)-COOH (ACYLPHPWFC; Peptide 4) | 0.76 g | 88% | – | –
